Drawing on publication PMC11473679, this text covers binding for three molecules.

Amino acid sequences for entries named in this document (tags omitted). Residues count along the entry.
UniProt P40939, residues 37-763: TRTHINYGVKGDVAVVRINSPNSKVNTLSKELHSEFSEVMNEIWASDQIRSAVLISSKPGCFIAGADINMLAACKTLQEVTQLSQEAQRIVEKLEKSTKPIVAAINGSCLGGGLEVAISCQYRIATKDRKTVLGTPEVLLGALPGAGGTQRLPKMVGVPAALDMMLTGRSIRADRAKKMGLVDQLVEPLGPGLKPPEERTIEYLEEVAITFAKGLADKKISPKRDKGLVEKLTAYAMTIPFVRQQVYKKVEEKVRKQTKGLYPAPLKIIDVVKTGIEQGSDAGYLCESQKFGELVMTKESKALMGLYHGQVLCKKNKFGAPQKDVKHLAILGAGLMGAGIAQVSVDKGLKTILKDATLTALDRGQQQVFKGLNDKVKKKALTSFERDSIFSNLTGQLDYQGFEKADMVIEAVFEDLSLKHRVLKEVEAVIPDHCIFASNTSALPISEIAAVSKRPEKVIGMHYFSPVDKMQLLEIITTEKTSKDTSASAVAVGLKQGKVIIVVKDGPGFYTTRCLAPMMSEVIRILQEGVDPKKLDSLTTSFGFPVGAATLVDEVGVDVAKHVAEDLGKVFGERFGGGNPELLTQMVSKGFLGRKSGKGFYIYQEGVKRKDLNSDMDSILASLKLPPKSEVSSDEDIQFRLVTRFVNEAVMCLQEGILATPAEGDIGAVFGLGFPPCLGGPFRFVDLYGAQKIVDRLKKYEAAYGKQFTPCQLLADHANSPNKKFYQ
UniProt Q8BMS1, residues 37-763: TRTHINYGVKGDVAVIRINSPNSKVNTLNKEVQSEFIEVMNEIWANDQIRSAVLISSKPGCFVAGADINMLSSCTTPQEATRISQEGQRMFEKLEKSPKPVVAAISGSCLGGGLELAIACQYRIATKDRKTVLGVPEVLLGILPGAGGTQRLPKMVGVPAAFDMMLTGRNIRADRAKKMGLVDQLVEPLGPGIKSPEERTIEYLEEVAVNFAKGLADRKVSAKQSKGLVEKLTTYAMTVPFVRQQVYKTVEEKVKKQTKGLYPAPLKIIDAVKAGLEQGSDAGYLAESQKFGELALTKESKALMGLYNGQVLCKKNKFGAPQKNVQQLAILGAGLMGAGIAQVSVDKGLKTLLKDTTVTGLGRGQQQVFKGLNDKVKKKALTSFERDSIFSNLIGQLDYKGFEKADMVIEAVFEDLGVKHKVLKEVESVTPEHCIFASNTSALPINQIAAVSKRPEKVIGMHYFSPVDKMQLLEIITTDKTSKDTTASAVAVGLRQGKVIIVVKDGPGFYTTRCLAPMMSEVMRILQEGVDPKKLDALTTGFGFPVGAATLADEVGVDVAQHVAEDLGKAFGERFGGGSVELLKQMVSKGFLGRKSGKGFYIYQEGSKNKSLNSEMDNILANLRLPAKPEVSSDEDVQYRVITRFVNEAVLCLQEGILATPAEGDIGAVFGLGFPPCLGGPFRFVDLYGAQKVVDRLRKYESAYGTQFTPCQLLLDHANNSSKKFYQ

No constants are given. Whether binding was seen depends on the method and setting. Binding seen in cells or lysates may run through a third protein. Some results given as binding are weak or reduced against the parent protein; the word gives no strength. For some of these results: Where a sequence is shown, tags or fusion partners need not be part of it.

Test [1] concerns the target T1, Myc-Melusin (pLVX lentivirus, in AC16 cells) (human) (UniProt Q9UKP3).
T1 sequence: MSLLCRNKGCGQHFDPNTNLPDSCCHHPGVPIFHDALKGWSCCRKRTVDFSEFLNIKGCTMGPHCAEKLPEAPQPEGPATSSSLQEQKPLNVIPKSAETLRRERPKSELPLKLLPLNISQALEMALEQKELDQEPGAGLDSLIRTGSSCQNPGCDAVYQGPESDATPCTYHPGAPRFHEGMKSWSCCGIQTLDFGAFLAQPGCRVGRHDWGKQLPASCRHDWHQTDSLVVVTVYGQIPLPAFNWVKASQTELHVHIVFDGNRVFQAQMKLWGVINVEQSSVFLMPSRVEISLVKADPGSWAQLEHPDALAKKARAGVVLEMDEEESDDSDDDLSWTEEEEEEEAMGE
Kind of test: proximity ligation; Duolink In Situ Red kit; AC16 cells expressing Myc-Melusin (empty as control), fixed and permeabilised; mouse anti-Myc tag and rabbit anti-HADHA.

Test [2] has as its target T2, Myc-Melusin (AAV6, in Mel null hiPSC-CMs) (UniProt Q9UKP3).
T2 sequence: T1 sequence
The experiment in a line: proximity ligation; Duolink In Situ Red kit; Mel null hiPSC-CMs infected with AAV6-MycMel (AAV6-empty as control), fixed and permeabilised; mouse anti-Myc tag and rabbit anti-HADHA.

For test [3], the target named is T3, Melusin (mouse, endogenous in wild-type heart) (mouse (endogenous in heart)) (UniProt Q9R000).
T3 sequence: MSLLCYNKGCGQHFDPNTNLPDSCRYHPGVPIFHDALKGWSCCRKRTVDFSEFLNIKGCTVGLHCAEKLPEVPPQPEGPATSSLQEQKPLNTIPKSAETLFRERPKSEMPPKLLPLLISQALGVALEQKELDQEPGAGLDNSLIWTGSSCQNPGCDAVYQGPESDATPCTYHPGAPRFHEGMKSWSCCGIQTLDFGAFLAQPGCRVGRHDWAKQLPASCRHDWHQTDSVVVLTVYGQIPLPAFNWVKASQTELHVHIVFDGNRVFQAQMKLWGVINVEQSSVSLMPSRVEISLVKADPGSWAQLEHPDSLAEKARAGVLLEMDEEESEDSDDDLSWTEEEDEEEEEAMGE
Kind of test: co-IP; Melusin immunoprecipitation from about 1 mg cardiac total extract of wild-type mice (Mel null as control); anti-Melusin antibody on CNBr-Sepharose beads, overnight at 4 °C; IP buffer 25 mM Tris-HCl pH 8, 1 mM MgCl2, 10% glycerol; immunoblot. A general note: Immunoblotting shows a protein as a band on a membrane.

As for “α subunit of the mitochondrial trifunctional protein (human) (from UniProt P40939 37-763)”, the binding entry in test [1] and in test [2] was “binds” each time.
As to “α subunit of the mitochondrial trifunctional protein (mouse) (from UniProt Q8BMS1 37-763)”, the binding result in test [3] was “binds”.

B1: β subunit of the mitochondrial trifunctional protein (mouse) (protein, UniProt Q99JY0 35-475)
chain: SAPAVQTKSKKTLAKPNMKNIVVVEGVRIPFLLSGTSYKDLMPHDLARAALSGLLHRTNIPKDVVDYIIFGTVIQEVKTSNVAREAALGAGFSDKTPAHTVTMACISSNQAMTTAVGLIASGQCDVVVAGGVELMSDVPIRHSRNMRKMMLDLNKAKTLGQRLSLLSKFRLNFLSPELPAVAEFSTNETMGHSADRLAAAFAVSRMEQDEYALRSHSLAKKAQDEGHLSDIVPFKVPGKDTVTKDNGIRPSSLEQMAKLKPAFIKPYGTVTAANSSFLTDGASAMLIMSEDRALAMGYKPKAYLRDFIYVSQDPKDQLLLGPTYATPKVLEKAGLTMNDIDAFEFHEAFSGQILANFKAMDSDWFAQNYMGRKTKVGSPPLEKFNIWGGSLSLGHPFGATGCRLVMAAANRLRKDGGQYALVAACAAGGQGHAMIVEAYPK
With B1, the binding result in test [3] was “binds”.
